PubChem BioAssay AID652259, Drosophila RNAi Screening Center – 2013
Assay: 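Knock-downs that push a Wingless-driven reporter up or down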 (primary screen). Cells: Drosophila clone 8 imaginal disc epithelial cells. Knock-down reagent: long dsRNA against Drosophila genes. Treatment: pathway stimulated by co-transfected Wingless expression plasmid. Measurement: 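Dual luciferase reads per well after Wingless plasmid stimulation: reporter firefly light and Renilla control light; activity is firefly divided by Renilla, a ratio not deposited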. Reading the numbers: firefly reporter light: higher = more Wg reporter light, before normalisation; Renilla control light: higher = more transfected or surviving cells. Call rule: 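Strong candidates differ from their plate mean by at least two out of four per-plate statistical tests; weak candidates meet just one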. Meaning of the calls: active = candidate regulator (raises or lowers reporter); inactive = not a candidate.
The deposit covers about 22,000 reagents; below is a random part of those that have a named target and a result. Over the whole deposit, 233 (1.1%) were called active. 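Light values are raw, unnormalised plate reads; the ratio scores behind the reporter calls were not deposited.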 A number with no mark means an inactive call. Names joined by + are all predicted targets of the reagent. The record does not give: the amount of reagent, the time to read-out, the dose of the treatment.

predicted target | amplicon | reporter change call, replicate 1 | firefly reporter light, replicate 1 | firefly reporter light, replicate 2 | Renilla control light, replicate 1 | Renilla control light, replicate 2
mRpS18B | DRSC02107 | – | 14137 | – | 4129 | –
Or67a | DRSC11240 | – | 5941 | – | 2833 | –
dally | DRSC08954 | – | 3257 | – | 1498 | –
dally | DRSC11338 | – | 2609 | – | 1288 | –
sli | DRSC07684 | – | 3084 | – | 1813 | –
sli | DRSC22936 | – | 4.57e5 | 5.03e5 | 2.14e5 | 1.19e5
Wnt6 | DRSC02795 | – | 3361 | 7749 | 1040 | 3496
SelT | DRSC02732 | – | 8869 | – | 3098 | –
CG10591 | DRSC09748 | – | 7705 | – | 2001 | –
CG6277 | DRSC16008 | – | 7665 | – | 3168 | –
Eip74EF | DRSC10613 | Wg reporter activity raised (active) | 5479 | – | 428 | –
Eip74EF | DRSC11160 | – | 5062 | – | 1873 | –
gfzf | DRSC12506 | – | 6730 | – | 1968 | –
gfzf | DRSC21874 | – | 4.95e5 | 4.49e5 | 1.45e5 | 1.58e5
caz | DRSC20317 | – | 4498 | 9848 | 1108 | 3969
caz | DRSC22594 | – | 3.44e5 | 4.02e5 | 1.34e5 | 1.36e5
Ir94a | DRSC13538 | – | 2813 | – | 1481 | –
Gcn5 | DRSC11248 | – | 5112 | – | 992 | –
Ir85a | DRSC14382 | – | 19917 | – | 5673 | –
LysE | DRSC08675 | – | 5405 | – | 2336 | –
tay | DRSC20142 | – | 1835 | 5901 | 784 | 1849
CG31715 | DRSC21607 | – | 5.31e5 | 6.10e5 | 2.06e5 | 1.57e5
CG8097 | DRSC20079 | – | 18378 | – | 7589 | –
mRpL45 | DRSC16146 | – | 21062 | – | 13949 | –
CG15332 | DRSC18015 | – | 12192 | – | 6473 | –
Lsd-1 | DRSC14236 | – | 3010 | 10906 | 1872 | 2346
jtb | DRSC06868 | – | 4530 | – | 1872 | –
CG10512 | DRSC11615 | – | 14939 | – | 4615 | –
gro | DRSC16962 | – | 1652 | 5019 | 987 | 2277
CR32733 + CG32797 | DRSC17705 | – | 4352 | – | 1680 | –
Hsp26 | DRSC11189 | – | 4360 | – | 1977 | –
CG5026 | DRSC10470 | – | 2874 | – | 1344 | –
CG13875 | DRSC08345 | – | 5274 | – | 2902 | –
Snm1 | DRSC12130 | – | 8294 | – | 2256 | –
Gr9a | DRSC22506 | – | 8.78e5 | 8.93e5 | 3.27e5 | 1.75e5

A stretch taken from the entries so far:
predicted target | amplicon | reporter change call, replicate 1 | firefly reporter light, replicate 1 | firefly reporter light, replicate 2 | Renilla control light, replicate 1 | Renilla control light, replicate 2
CR32733 + CG32797 | DRSC17705 | – | 4352 | – | 1680 | –
Hsp26 | DRSC11189 | – | 4360 | – | 1977 | –
CG5026 | DRSC10470 | – | 2874 | – | 1344 | –

The listing continues:
predicted target | amplicon | reporter change call, replicate 1 | firefly reporter light, replicate 1 | firefly reporter light, replicate 2 | Renilla control light, replicate 1 | Renilla control light, replicate 2
Acsx2 | DRSC14308 | – | 13671 | – | 2759 | –
CG14929 | DRSC02411 | – | 2721 | 9220 | 640 | 4273
GILT2 | DRSC14196 | – | 3298 | 8610 | 1408 | 2704
SNF4Agamma | DRSC13461 | – | 3049 | – | 1345 | –
SNF4Agamma | DRSC13463 | – | 4432 | 7.74e5 | 2217 | 4.00e5
SNF4Agamma | DRSC15879 | – | 23736 | – | 5769 | –
SNF4Agamma | DRSC16847 | – | 2422 | 3810 | 724 | 1498
Vha100-4 | DRSC16282 | – | 14005 | – | 2770 | –
Pss | DRSC11757 | – | 15361 | – | 4755 | –
toe | DRSC09174 | – | 3050 | – | 1158 | –
toe | DRSC09783 | – | 10295 | – | 2212 | –
AANATL6 | DRSC06773 | – | 6819 | – | 2247 | –
Der-2 | DRSC15021 | – | 15922 | – | 4122 | –
CG14367 | DRSC14829 | – | 14508 | – | 3392 | –
CG31064 | DRSC14756 | – | 4530 | – | 3864 | –
CG31064 | DRSC15941 | – | 7648 | – | 2648 | –
CG31064 | DRSC15942 | – | 6371 | – | 2365 | –
CG31064 | DRSC15943 | – | 8950 | – | 1815 | –
trp | DRSC17088 | – | 5945 | – | 2487 | –
CG5033 | DRSC07410 | – | 8485 | – | 3330 | –
Ref2 | DRSC02563 | – | 1467 | 3990 | 820 | 2041
mus101 | DRSC19388 | – | 32288 | – | 15853 | –
PIG-H | DRSC14856 | – | 22163 | – | 6516 | –
CG33140 | DRSC06030 | – | 9488 | – | 2889 | –
CG7120 | DRSC08921 | – | 3842 | – | 1228 | –
CG7120 | DRSC10773 | – | 1558 | 4940 | 998 | 2841
Cyp4s3 | DRSC20241 | – | 29811 | – | 14069 | –
Cyp4s3 | DRSC22340 | – | 3.77e5 | 6.15e5 | 1.36e5 | 2.34e5
CG42633 | DRSC16061 | – | 12213 | – | 3776 | –
Mst85C | DRSC16746 | – | 12081 | – | 4224 | –
Jupiter | DRSC15204 | – | 5580 | – | 1922 | –
Jupiter | DRSC15205 | – | 18432 | – | 4176 | –
Jupiter | DRSC15389 | – | 16288 | – | 3661 | –
mip120 | DRSC06960 | – | 9232 | – | 4105 | –
Gr97a | DRSC13802 | – | 3283 | – | 1604 | –
moon | DRSC19497 | – | 17723 | – | 9009 | –
CG13313 | DRSC09984 | – | 1656 | 6233 | 1469 | 3376
Hexo2 | DRSC18671 | – | 22034 | – | 10128 | –
